In paper PMC7924263 one finds binding data, which are given here for five substances.

Protein sequences, listed by entry. Tags and fused reporters are not part of them. Residues count along the entry.
UniProt P0DTD2: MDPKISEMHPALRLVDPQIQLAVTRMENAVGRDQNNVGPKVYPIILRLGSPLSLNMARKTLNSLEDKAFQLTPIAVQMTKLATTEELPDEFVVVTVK
UniProt P0DTC6: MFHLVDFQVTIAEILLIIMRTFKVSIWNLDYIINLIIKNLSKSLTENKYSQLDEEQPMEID
UniProt P52948, residues 1-880: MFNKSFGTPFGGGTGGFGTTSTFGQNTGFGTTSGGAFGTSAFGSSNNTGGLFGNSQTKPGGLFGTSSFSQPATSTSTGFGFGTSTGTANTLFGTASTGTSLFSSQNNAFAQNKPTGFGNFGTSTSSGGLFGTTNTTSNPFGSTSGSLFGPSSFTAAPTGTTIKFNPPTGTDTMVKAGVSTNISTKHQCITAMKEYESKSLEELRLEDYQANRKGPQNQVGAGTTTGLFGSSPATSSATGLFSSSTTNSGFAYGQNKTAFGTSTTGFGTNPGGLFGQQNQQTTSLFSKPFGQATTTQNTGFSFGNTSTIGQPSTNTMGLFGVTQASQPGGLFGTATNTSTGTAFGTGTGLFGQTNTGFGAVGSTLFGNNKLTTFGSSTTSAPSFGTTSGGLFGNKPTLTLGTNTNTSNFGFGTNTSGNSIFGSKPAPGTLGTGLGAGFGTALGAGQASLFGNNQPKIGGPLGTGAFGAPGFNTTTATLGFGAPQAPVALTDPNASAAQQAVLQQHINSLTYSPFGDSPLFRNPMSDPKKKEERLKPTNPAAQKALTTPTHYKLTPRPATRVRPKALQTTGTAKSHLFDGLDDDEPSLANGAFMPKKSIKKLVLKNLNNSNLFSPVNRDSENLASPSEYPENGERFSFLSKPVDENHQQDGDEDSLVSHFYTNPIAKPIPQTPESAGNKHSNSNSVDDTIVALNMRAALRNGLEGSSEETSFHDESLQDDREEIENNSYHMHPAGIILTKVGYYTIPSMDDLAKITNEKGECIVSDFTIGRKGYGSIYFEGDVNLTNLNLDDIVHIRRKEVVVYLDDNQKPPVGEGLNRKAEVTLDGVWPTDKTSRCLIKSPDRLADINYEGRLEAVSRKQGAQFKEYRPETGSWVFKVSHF
UniProt Q9NXV6: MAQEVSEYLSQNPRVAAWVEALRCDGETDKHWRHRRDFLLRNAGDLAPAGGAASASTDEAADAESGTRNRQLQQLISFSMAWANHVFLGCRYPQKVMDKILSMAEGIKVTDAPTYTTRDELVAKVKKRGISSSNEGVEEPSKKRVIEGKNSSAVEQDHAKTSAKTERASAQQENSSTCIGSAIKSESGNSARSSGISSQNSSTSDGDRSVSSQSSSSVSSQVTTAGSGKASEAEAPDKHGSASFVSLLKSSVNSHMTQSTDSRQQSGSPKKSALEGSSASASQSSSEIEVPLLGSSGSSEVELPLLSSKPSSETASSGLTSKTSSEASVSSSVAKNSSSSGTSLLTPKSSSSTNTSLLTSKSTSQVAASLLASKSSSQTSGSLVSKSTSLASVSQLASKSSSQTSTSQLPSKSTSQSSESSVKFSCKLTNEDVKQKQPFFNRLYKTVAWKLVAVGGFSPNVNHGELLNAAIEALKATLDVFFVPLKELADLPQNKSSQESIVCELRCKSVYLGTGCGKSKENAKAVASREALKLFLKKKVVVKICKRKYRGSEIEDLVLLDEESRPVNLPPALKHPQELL
UniProt P78344: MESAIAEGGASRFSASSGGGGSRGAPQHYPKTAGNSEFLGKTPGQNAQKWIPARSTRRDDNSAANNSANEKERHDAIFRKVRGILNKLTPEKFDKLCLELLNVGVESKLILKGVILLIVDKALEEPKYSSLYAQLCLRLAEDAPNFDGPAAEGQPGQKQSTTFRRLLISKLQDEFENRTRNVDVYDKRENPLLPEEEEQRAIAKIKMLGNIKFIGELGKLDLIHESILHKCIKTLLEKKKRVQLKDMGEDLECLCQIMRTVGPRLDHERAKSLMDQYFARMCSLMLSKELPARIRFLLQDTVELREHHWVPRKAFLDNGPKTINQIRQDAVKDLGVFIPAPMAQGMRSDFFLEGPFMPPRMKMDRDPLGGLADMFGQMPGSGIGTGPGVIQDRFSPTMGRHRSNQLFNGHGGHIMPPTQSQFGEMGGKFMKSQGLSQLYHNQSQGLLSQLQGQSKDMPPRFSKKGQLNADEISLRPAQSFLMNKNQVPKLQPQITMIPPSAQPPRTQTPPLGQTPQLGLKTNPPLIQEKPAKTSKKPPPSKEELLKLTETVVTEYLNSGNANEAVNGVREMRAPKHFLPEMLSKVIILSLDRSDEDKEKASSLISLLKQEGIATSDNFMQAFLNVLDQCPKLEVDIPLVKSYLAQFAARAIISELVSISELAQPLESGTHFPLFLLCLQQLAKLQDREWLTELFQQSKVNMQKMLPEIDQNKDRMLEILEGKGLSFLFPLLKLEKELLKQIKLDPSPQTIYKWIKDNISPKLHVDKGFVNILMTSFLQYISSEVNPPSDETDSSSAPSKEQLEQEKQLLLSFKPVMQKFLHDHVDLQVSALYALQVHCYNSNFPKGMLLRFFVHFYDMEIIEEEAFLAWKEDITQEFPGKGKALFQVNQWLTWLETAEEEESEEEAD
UniProt Q7Z434: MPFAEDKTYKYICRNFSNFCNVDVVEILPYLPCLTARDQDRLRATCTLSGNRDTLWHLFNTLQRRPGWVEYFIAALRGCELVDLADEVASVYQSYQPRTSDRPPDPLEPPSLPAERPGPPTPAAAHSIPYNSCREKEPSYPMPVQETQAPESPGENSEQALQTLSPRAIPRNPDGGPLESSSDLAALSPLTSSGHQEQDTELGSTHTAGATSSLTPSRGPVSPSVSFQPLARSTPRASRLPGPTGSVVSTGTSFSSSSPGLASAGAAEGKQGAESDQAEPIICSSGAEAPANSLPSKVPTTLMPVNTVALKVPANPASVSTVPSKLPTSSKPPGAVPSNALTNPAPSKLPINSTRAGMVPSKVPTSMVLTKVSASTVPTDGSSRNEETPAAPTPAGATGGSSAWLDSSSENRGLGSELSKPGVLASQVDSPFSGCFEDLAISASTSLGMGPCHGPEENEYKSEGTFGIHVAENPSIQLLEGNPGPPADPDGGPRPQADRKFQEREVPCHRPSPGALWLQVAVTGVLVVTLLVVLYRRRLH

Holding throughout (experiment): proximity labelling
For assay [1], the target named is SARS-CoV-2 NSP1, HA-BASU fusion (SARS-CoV-2) (UniProt P0DTD1).
The target in assay [2] is SARS-CoV-2 ORF9b, HA-BASU fusion (SARS-CoV-2) (UniProt P0DTD2).
For assay [3], the target named is SARS-CoV-2 NSP5, HA-BASU fusion (SARS-CoV-2) (UniProt P0DTD1).
The target of assay [4] is SARS-CoV-2 ORF6, HA-BASU fusion (SARS-CoV-2) (UniProt P0DTC6).

No constants are given. Whether binding was seen depends on the method and setting. Binding seen in cells or lysates may run through a third protein. These calls come from enrichment with a bait or labelling near it, and not all partners need be listed. For some assays here: A no says only that the protein was not detected with the bait.

Consider EIF3B (from UniProt P55884 1-814), for which the binding result in assay [1] was “binds”.
Consider Nup98 (from UniProt P52948 1-880), for which the binding entry in assay [2] was “no binding”.
As for CDKN2AIP (from UniProt Q9NXV6 1-580), the binding entry in assay [3] is listed as “binds”.
In the case of EIF4G2 (from UniProt P78344 1-907), in assay [1], the binding result is reported as “binds”.
As to “Mitochondrial Activation of Viral Signaling (MAVS) (from UniProt Q7Z434 1-540)”, the binding entry in assay [4] is given as “binds”.
